{"sequences": {"note": "Sequences of proteins named here, by UniProt entry; tags and fusion partners are left off. A change or cut given only in a name is not applied to a line headed by its entry.", "UniProt Q9Y165": "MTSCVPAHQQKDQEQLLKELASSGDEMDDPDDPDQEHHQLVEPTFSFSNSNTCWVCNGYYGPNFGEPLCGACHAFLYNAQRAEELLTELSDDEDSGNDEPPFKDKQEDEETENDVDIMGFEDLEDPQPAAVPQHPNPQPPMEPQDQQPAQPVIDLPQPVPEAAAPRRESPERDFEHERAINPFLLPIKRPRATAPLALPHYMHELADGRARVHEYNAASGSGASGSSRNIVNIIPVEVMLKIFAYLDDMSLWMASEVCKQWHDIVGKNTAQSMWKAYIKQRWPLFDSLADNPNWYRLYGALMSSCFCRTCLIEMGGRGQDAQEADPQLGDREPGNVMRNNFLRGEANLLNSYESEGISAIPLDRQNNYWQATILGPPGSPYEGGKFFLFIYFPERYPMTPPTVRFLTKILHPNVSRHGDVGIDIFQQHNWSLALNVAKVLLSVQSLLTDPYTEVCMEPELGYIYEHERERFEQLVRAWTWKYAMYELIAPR", "UniProt O77430": "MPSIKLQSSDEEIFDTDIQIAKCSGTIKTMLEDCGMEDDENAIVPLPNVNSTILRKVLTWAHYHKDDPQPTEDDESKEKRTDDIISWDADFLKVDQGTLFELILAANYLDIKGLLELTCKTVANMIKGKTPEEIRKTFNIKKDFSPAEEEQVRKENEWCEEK"}, "source": "paper PMC3787007", "target": "Morgue:3xFLAG (Drosophila) (UniProt Q9Y165)", "assay": "affinity purification with mass spectrometry; lysate of whole adult flies on M2 anti-FLAG resin, 2 h at 4°C, 150 mM NaCl, 1% Triton X-100; eluate on SDS gel (silver or Coomassie stain); bands cut out, trypsin, MALDI-TOF/TOF", "note": "Results are given in words; binding and its absence hold for the method and conditions named. In cells and extracts the contact can be indirect. These calls come from enrichment with a bait or labelling near it, and not all partners need be listed."}
{"substance": "SkpA (from UniProt O77430 1-162)", "values": [{"measurement": "binding", "value": "binds"}]}
